# Laboratory results: PubChem BioAssay AID1224827 (NIAID, 2016)
# Screen: 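Confirm genes whose knock-down changes LPS-driven TNF promoter activity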 (follow-up of hits)
# System: RAW264.7 G9 mouse macrophage reporter clone
# Knock-down reagent: single siRNA against mouse genes, 100 nM siRNA
# Timing: siRNA for 2 days, then LPS about 16 h
# Challenge: bacterial lipopolysaccharide (LPS), 10 ng/ml, cells fixed after overnight (about 16 h) stimulation
# Read-out: 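Imaged nuclear TNF reporter intensity, background removed, scaled per plate and to non-targeting control wells, as z-scores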
# Reading the numbers: TNF reporter z-score, mean and TNF reporter z-score: higher = stronger Tnf promoter reporter signal; gene median z, three same-vendor siRNAs: higher = stronger Tnf reporter signal for the gene
# Active means: 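An siRNA is called active when its mean z-score over replicates is at least +2 or at most -2; control wells get no call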
# This is a random part of about 3,800 reagents tested. Of all reagents, about 2,200 (57%) are marked active. 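Active means a strong reporter change in either direction; calls are per siRNA, not per gene; qiagen siRNAs gave weaker effects.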 Reagents against one gene are numbered here.
Gene,reagent,"TNF reporter z-score, mean","gene median z, three same-vendor siRNAs","TNF reporter z-score, repeat 1","TNF reporter z-score, repeat 2",activity call
Qser1 (glutamine and serine rich 1),1,2.38,0.505,4.04,0.719,active
Qser1 (glutamine and serine rich 1),2,0.1,0.505,-0.0904,0.291,inactive
Qser1 (glutamine and serine rich 1),3,-0.18,0.505,2.21,-2.57,inactive
Il17re (interleukin 17 receptor E),1,1.12,-1.63,-0.0858,2.33,inactive
Il17re (interleukin 17 receptor E),2,-1.35,-1.63,0.475,-3.17,inactive
Il17re (interleukin 17 receptor E),3,-4.1,-1.63,-4.5,-3.71,active
Il17re (interleukin 17 receptor E),4,1.85,-0.155,4.12,-0.421,inactive
Il17re (interleukin 17 receptor E),5,0.377,-0.155,0.642,0.112,inactive
Il17re (interleukin 17 receptor E),6,-3.5,-0.155,-4.27,-2.73,active
Mrtfb (myocardin related transcription factor B),1,0.523,-4.11,-0.22,1.27,inactive
Mrtfb (myocardin related transcription factor B),2,-4.4,-4.11,-4.13,-4.67,active
Mrtfb (myocardin related transcription factor B),3,-4.56,-4.11,-5.03,-4.08,active
Mrtfb (myocardin related transcription factor B),4,2.03,-0.0678,3.66,0.405,active
Mrtfb (myocardin related transcription factor B),5,0.454,-0.0678,1.45,-0.541,inactive
Mrtfb (myocardin related transcription factor B),6,-2.41,-0.0678,-3.09,-1.72,active
"D6Ertd160e (DNA segment, Chr 6, ERATO Doi 160, expressed)",1,2.53,-1.29,3.81,1.25,active
"D6Ertd160e (DNA segment, Chr 6, ERATO Doi 160, expressed)",2,-1.48,-1.29,-1.87,-1.09,inactive
"D6Ertd160e (DNA segment, Chr 6, ERATO Doi 160, expressed)",3,-2.15,-1.29,-2.81,-1.49,active
Rbl2 (RB transcriptional corepressor like 2),1,-0.467,-1.72,-0.979,0.0453,inactive
Rbl2 (RB transcriptional corepressor like 2),2,-1.84,-1.72,-2.25,-1.43,inactive
Rbl2 (RB transcriptional corepressor like 2),3,-2.85,-1.72,-3.7,-2.01,active
Rbl2 (RB transcriptional corepressor like 2),4,3.34,1.19,5.28,1.41,active
Rbl2 (RB transcriptional corepressor like 2),5,1.12,1.19,2.21,0.0259,inactive
Rbl2 (RB transcriptional corepressor like 2),6,0.414,1.19,0.974,-0.147,inactive
"Orc5 (origin recognition complex, subunit 5)",1,-3.46,-3.86,-2.87,-4.06,active
"Orc5 (origin recognition complex, subunit 5)",2,-3.44,-3.86,-3.67,-3.22,active
"Orc5 (origin recognition complex, subunit 5)",3,-4.46,-3.86,-4.54,-4.39,active
"Orc5 (origin recognition complex, subunit 5)",4,2.71,0.797,4.3,1.13,active
"Orc5 (origin recognition complex, subunit 5)",5,2.02,0.797,3.58,0.469,active
"Orc5 (origin recognition complex, subunit 5)",6,-0.623,0.797,-0.99,-0.255,inactive
Or4a39 (olfactory receptor family 4subfamily A member 39),1,-1.53,-4.96,-1.51,-1.56,inactive
Or4a39 (olfactory receptor family 4subfamily A member 39),2,-5.28,-4.96,-4.65,-5.9,active
Or4a39 (olfactory receptor family 4subfamily A member 39),3,-5.63,-4.96,-5.27,-5.99,active
Or4a39 (olfactory receptor family 4subfamily A member 39),4,4.85,1.71,7.38,2.33,active
Or4a39 (olfactory receptor family 4subfamily A member 39),5,2.75,1.71,4.84,0.662,active
Or4a39 (olfactory receptor family 4subfamily A member 39),6,0.0562,1.71,1.1,-0.983,inactive
Tec (tec protein tyrosine kinase),1,-3.1,-4.35,-3.39,-2.81,active
Tec (tec protein tyrosine kinase),2,-4.35,-4.35,-4.17,-4.53,active
Tec (tec protein tyrosine kinase),3,-6.89,-4.35,-6.5,-7.27,active
Tec (tec protein tyrosine kinase),4,2.98,1.29,5.16,0.801,active
Tec (tec protein tyrosine kinase),5,3.11,1.29,5.86,0.371,active
Tec (tec protein tyrosine kinase),6,1.2,1.29,1.79,0.619,inactive
Hus1 (HUS1 checkpoint clamp component),1,-0.792,-3.04,-1.72,0.133,inactive
Hus1 (HUS1 checkpoint clamp component),2,-2.91,-3.04,-4.36,-1.46,active
Hus1 (HUS1 checkpoint clamp component),3,-5,-3.04,-5.45,-4.55,active
Hus1 (HUS1 checkpoint clamp component),4,1.09,-0.773,2.96,-0.774,inactive
Hus1 (HUS1 checkpoint clamp component),5,0.699,-0.773,2.17,-0.773,inactive
Hus1 (HUS1 checkpoint clamp component),6,-3.16,-0.773,-2.82,-3.49,active
Bok (BCL2-related ovarian killer),1,-4.14,-5.04,-5.3,-2.98,active
Bok (BCL2-related ovarian killer),2,-4.27,-5.04,-4.77,-3.78,active
Bok (BCL2-related ovarian killer),3,-5.76,-5.04,-5.68,-5.84,active
Il17rd (interleukin 17 receptor D),1,-1.66,-2.23,-2.51,-0.806,inactive
Il17rd (interleukin 17 receptor D),2,-1.84,-2.23,-1.95,-1.74,inactive
Il17rd (interleukin 17 receptor D),3,-5.99,-2.23,-5.3,-6.69,active
Il17rd (interleukin 17 receptor D),4,0.936,-1.32,2.4,-0.526,inactive
Il17rd (interleukin 17 receptor D),5,-1.21,-1.32,-0.298,-2.12,inactive
Il17rd (interleukin 17 receptor D),6,-3.23,-1.32,-3.22,-3.23,active
"Tnfsf14 (tumor necrosis factor (ligand) superfamily, member 14)",1,1.4,0.27,2.29,0.517,inactive
"Tnfsf14 (tumor necrosis factor (ligand) superfamily, member 14)",2,0.948,0.27,0.0234,1.87,inactive
"Tnfsf14 (tumor necrosis factor (ligand) superfamily, member 14)",3,-3.86,0.27,-4.39,-3.33,active
"Tnfsf14 (tumor necrosis factor (ligand) superfamily, member 14)",4,-1.55,-2.46,-0.826,-2.28,inactive
"Tnfsf14 (tumor necrosis factor (ligand) superfamily, member 14)",5,-2.31,-2.46,-1.06,-3.55,active
"Tnfsf14 (tumor necrosis factor (ligand) superfamily, member 14)",6,-2.86,-2.46,-2.65,-3.08,active
Vmn1r6 (vomeronasal 1 receptor 6),1,-0.828,-1.45,-0.24,-1.42,inactive
Vmn1r6 (vomeronasal 1 receptor 6),2,-0.714,-1.45,-1.48,0.0461,inactive
Vmn1r6 (vomeronasal 1 receptor 6),3,-5.07,-1.45,-4.97,-5.17,active
Nat2 (N-acetyltransferase 2 (arylamine N-acetyltransferase)),1,5.35,-3.52,3.5,7.21,active
Nat2 (N-acetyltransferase 2 (arylamine N-acetyltransferase)),2,-3.52,-3.52,-4.05,-2.98,active
Nat2 (N-acetyltransferase 2 (arylamine N-acetyltransferase)),3,-5.18,-3.52,-6.06,-4.3,active
Nat2 (N-acetyltransferase 2 (arylamine N-acetyltransferase)),4,2.16,0.962,3.38,0.936,active
Nat2 (N-acetyltransferase 2 (arylamine N-acetyltransferase)),5,1.29,0.962,2.57,0.0156,inactive
Nat2 (N-acetyltransferase 2 (arylamine N-acetyltransferase)),6,0.0762,0.962,0.988,-0.835,inactive
Rpf2 (ribosome production factor 2 homolog),1,-0.515,-3.8,-1.32,0.292,inactive
Rpf2 (ribosome production factor 2 homolog),2,-3.8,-3.8,-4.04,-3.57,active
Rpf2 (ribosome production factor 2 homolog),3,-5.62,-3.8,-5.07,-6.18,active
Rpf2 (ribosome production factor 2 homolog),4,1.94,0.438,3.3,0.582,inactive
Rpf2 (ribosome production factor 2 homolog),5,0.661,0.438,1.03,0.293,inactive
Rpf2 (ribosome production factor 2 homolog),6,-3.22,0.438,-3.73,-2.71,active

11 entries from above in another layout.
Il17re (interleukin 17 receptor E) #2: TNF reporter z-score, mean = -1.35; gene median z, three same-vendor siRNAs = -1.63; TNF reporter z-score, repeat 1 = 0.475; TNF reporter z-score, repeat 2 = -3.17; activity call = inactive
Il17re (interleukin 17 receptor E) #3: TNF reporter z-score, mean = -4.1; gene median z, three same-vendor siRNAs = -1.63; TNF reporter z-score, repeat 1 = -4.5; TNF reporter z-score, repeat 2 = -3.71; activity call = active
Il17re (interleukin 17 receptor E) #4: TNF reporter z-score, mean = 1.85; gene median z, three same-vendor siRNAs = -0.155; TNF reporter z-score, repeat 1 = 4.12; TNF reporter z-score, repeat 2 = -0.421; activity call = inactive
Il17re (interleukin 17 receptor E) #5: TNF reporter z-score, mean = 0.377; gene median z, three same-vendor siRNAs = -0.155; TNF reporter z-score, repeat 1 = 0.642; TNF reporter z-score, repeat 2 = 0.112; activity call = inactive
Il17re (interleukin 17 receptor E) #6: TNF reporter z-score, mean = -3.5; gene median z, three same-vendor siRNAs = -0.155; TNF reporter z-score, repeat 1 = -4.27; TNF reporter z-score, repeat 2 = -2.73; activity call = active
Mrtfb (myocardin related transcription factor B) #1: TNF reporter z-score, mean = 0.523; gene median z, three same-vendor siRNAs = -4.11; TNF reporter z-score, repeat 1 = -0.22; TNF reporter z-score, repeat 2 = 1.27; activity call = inactive
Mrtfb (myocardin related transcription factor B) #2: TNF reporter z-score, mean = -4.4; gene median z, three same-vendor siRNAs = -4.11; TNF reporter z-score, repeat 1 = -4.13; TNF reporter z-score, repeat 2 = -4.67; activity call = active
Mrtfb (myocardin related transcription factor B) #3: TNF reporter z-score, mean = -4.56; gene median z, three same-vendor siRNAs = -4.11; TNF reporter z-score, repeat 1 = -5.03; TNF reporter z-score, repeat 2 = -4.08; activity call = active
Mrtfb (myocardin related transcription factor B) #4: TNF reporter z-score, mean = 2.03; gene median z, three same-vendor siRNAs = -0.0678; TNF reporter z-score, repeat 1 = 3.66; TNF reporter z-score, repeat 2 = 0.405; activity call = active
Mrtfb (myocardin related transcription factor B) #5: TNF reporter z-score, mean = 0.454; gene median z, three same-vendor siRNAs = -0.0678; TNF reporter z-score, repeat 1 = 1.45; TNF reporter z-score, repeat 2 = -0.541; activity call = inactive
Mrtfb (myocardin related transcription factor B) #6: TNF reporter z-score, mean = -2.41; gene median z, three same-vendor siRNAs = -0.0678; TNF reporter z-score, repeat 1 = -3.09; TNF reporter z-score, repeat 2 = -1.72; activity call = active
